Assay results as given in patent US20220226267A1.
No constants are given. Whether binding was seen depends on the method and setting. In cells and extracts the contact can be indirect. Some binding calls cover weakened binding; strength is not graded here.

Sequences of proteins named here, by UniProt entry; tags and fusion partners are left off.
UniProt P31749: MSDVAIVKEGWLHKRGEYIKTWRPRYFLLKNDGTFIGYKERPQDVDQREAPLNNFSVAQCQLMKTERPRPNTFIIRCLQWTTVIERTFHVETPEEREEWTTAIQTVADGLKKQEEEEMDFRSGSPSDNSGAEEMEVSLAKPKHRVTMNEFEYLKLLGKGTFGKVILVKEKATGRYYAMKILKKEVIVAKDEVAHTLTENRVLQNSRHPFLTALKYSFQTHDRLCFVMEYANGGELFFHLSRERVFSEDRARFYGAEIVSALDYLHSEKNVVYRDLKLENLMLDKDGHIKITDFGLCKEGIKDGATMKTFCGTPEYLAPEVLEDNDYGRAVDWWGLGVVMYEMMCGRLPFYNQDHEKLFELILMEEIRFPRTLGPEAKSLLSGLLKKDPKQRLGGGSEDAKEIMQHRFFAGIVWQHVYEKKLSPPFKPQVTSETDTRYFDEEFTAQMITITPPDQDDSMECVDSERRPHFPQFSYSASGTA
UniProt P31750: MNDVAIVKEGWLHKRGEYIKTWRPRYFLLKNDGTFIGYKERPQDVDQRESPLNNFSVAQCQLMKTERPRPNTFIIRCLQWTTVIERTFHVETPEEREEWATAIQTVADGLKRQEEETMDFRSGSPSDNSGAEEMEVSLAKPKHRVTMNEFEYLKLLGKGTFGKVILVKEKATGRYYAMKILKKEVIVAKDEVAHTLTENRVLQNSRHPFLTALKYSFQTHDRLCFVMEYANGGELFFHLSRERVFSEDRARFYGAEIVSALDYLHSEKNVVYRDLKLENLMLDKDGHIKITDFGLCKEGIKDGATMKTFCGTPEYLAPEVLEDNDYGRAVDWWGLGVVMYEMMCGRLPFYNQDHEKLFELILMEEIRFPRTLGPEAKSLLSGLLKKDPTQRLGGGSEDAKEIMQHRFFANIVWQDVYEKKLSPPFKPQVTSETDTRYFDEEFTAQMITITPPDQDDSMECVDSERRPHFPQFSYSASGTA

B1: Calcium/calmodulin-dependent protein kinase IV (CaMK4), endogenous in HaCaT cells (enzyme, UniProt Q16566 1-473, looked up)
chain: MLKVTVPSCSASSCSSVTASAAPGTASLVPDYWIDGSNRDALSDFFEVESELGRGATSIVYRCKQKGTQKPYALKVLKKTVDKKIVRTEIGVLLRLSHPNIIKLKEIFETPTEISLVLELVTGGELFDRIVEKGYYSERDAADAVKQILEAVAYLHENGIVHRDLKPENLLYATPAPDAPLKIADFGLSKIVEHQVLMKTVCGTPGYCAPEILRGCAYGPEVDMWSVGIITYILLCGFEPFYDERGDQFMFRRILNCEYYFISPWWDEVSLNAKDLVRKLIVLDPKKRLTTFQALQHPWVTGKAANFVHMDTAQKKLQEFNARRKLKAAVKAVVASSRLGSASSSHGSIQESHKASRDPSPIQDGNEDMKAIPEGEKIQGDGAQAAVKGAQAELMKVQALEKVKGADINAEEAPKMVPKAVEDGIKVADLELEEGLAEEKLKTVEEAAAPREGQGSSAVGFEVPQQDVILPEY
B2: Calcium/calmodulin-dependent protein kinase IV (CaMK4), endogenous in mouse bone marrow-derived macrophages (BMDMs) (enzyme, UniProt P08414 1-469, looked up)
chain: MLKVTVPSCPSSPCSSVTASTENLVPDYWIDGSNRDPLGDFFEVESELGRGATSIVYRCKQKGTQKPYALKVLKKTVDKKIVRTEIGVLLRLSHPNIIKLKEIFETPTEISLVLELVTGGELFDRIVEKGYYSERDARDAVKQILEAVAYLHENGIVHRDLKPENLLYATPAPDAPLKIADFGLSKIVEHQVLMKTVCGTPGYCAPEILRGCAYGPEVDMWSVGIITYILLCGFEPFYDERGDQFMFRRILNCEYYFISPWWDEVSLNAKDLVKKLIVLDPKKRLTTFQALQHPWVTGKAANFVHMDTAQKKLQEFNARRKLKAAVKAVVASSRLGSASSSHTSIQENHKASSDPPSTQDAKDSTDLLGKKMQEEDQEEDQVEAEASADEMRKLQSEEVEKDAGVKEEETSSMVPQDPEDELETDDPEMKRDSEEKLKSVEEEMDPMTEEEAPDAGLGVPQQDAIQPEY

Columns and labels:
[1] = target: AKT (protein kinase B), endogenous in HaCaT cells (UniProt P31749); assay: co-immunoprecipitation from HaCaT cell lysate with CaMK4 antibody, Western blot with AKT antibody
[2] = target: AKT (protein kinase B), endogenous in HaCaT cells (UniProt P31749); assay: co-immunoprecipitation from HaCaT cells stimulated with TNF-α and IL-17A
[3] = target: AKT (protein kinase B), endogenous in mouse bone marrow-derived macrophages (BMDMs) (mouse) (UniProt P31750); assay: co-immunoprecipitation from BMDMs

Row | Binder | binding [1] | binding [2] | binding [3]
1 | B1 | binds | binds | –
2 | B2 | – | – | binds
